Measured values: article PMC12370185
The other results are listed elsewhere or left out.

Test system: KLF4 + histone octamer
Test: EMSA with sequencing
Conditions: 10 mM Tris-Cl pH 7.5, 50 mM NaCl, 1 mM DTT, 0.25 mg/ml BSA, 2 mM MgCl2, 0.025% Nonidet P-40, 5% glycerol; 28 nM nucleosome library; 10 min on ice then 30 min …; high values mean tight binding; double strand, one strand shown

| Sequence | binding signal (log2 relative supershift) |
| --- | --- |
| GATGGACCCTATACGCGGCTGGTTCTCTCACCCCAGACACACCAGGGCTGATCCAACATATCTGGCTCAACATCACCCACAAGTCTCAACAGGGCCCTGAAAACCACCTCTGACTCCACAACCCACTGTCCCACGCCCTGGGAGGTAGGCTGTGTCTGGGCTTGCTCACGTCTGGGAACAGCAAAGTCTGGCCCAAGCCTGTTCAGCCTGTGCCAGTCGGATAGTGTTCC | 1.79 |
| GATGGACCCTATACGCGGCCGTGCCTGGAGCTTGGAATTCAGGCCAGAAACCACCAGTGGACACCAGCATTCCACACTCACTGCACAGGCTGGGGCTCAAACCAAGGCCCAGGGACAGGAAGGGACAAGCCCCAGCCCCAGCCGGACTCCCAGCCCACACAAACCATCAGGGCTTGTTTCCTGCTCCATGGAAGCCTCAGACATGTTTCATGCCAGTCGGATAGTGTTCC | 0.561 |
| GATGGACCCTATACGCGGCGCAAAGCTCCAGTACCCTCAGGCCACACCTACTGGAAAAATATATGTCAGCCCCAGAAAATTGTGGGCAAGATGAGGCAAGTCCTGAGCAACACAGGAAACTGCCCTCCTCCTTTTCTGGCCCCGCTTCCACTGTGATGCTAAAGATCGCATCAAGGCTGGTCATCCAATCAGCAGGATGTAAGAGGGTCATGCCAGTCGGATAGTGTTCC | 2.17 |
| GATGGACCCTATACGCGGCGGCCTGGACCCAACCCGAAACTCAACAAGCAGCAGCCTGGCCGTGGTGCCTCAAGCCAGCCACTAGAGGGTGCAGTTGAGCTGTCAGCCTGCCTGGAGGGGCGAGGTGGTGGGGGTGAGTGTGCAGGCGTGTGTGTGTGTGTGTGTGTGTGTGCGCGCGCGCGCGCGCCTGTGTGTGGGCGTGTTGTGTGCTGCCAGTCGGATAGTGTTCC | 1.32 |
| GATGGACCCTATACGCGGCAGAGAGCCCAAGACTAGAAATGCCCATATCTTCCCATGGAAAGTGTTCCTCTGATAGGCGGGAGACAGAGGACCAAATTGCAAGTTACAACCTGCAGCCTGGGAGTTTCAGGGGCTTCAACACCAAATGAAATTGGAGAACTATCAACAGGATTCAGGGTTCAGCACAGGCTCCAGCAAGACAGAGAGAAATGCCAGTCGGATAGTGTTCC | 1.83 |
| GATGGACCCTATACGCGGCTGGGGCTCAGTGTTCTGGGAGAAGTGGGTTCTAGCTCTGCCGCTGGGCCCTGGGTGTGGGCGCCCAATCGTCCGGGAAGCGCCCACAAGCCCAGGCAAGTCCCGACAGCGGTAGCCCGAGCCCAAGCGCTGCGGGCCCGGCGTCCCAGTGACCCCAGTTCCGGGTCCGAGGCACCGCCGGCGGCATCTCCCTGCCAGTCGGATAGTGTTCC | 2.35 |
| GATGGACCCTATACGCGGCGGGTCCCCAGAGAATCTCCAGGCACACAAGTGTCTACCACAGATAAAACATCTGGTGCAGATAAGGGAACCTGCACAGGGGCTTGCCTGGACATGCCAGCAGCAGACTGGAGGCCCACATGCACTGGGGAGCTGGGGTGGAGCCACCAAGAATTCATGCCTTATGCAGAGGAGGAGCCTGGCCTCTTCAGCTGCCAGTCGGATAGTGTTCC | 2.13 |
| GATGGACCCTATACGCGGCTTCTCTTTCTCCCTGCCTCCACCAGCCCAGACCCCACCCCACCTCCTGTAAACCAGGGGCAGCAGGGGAGGGACGCTTTGCAGAGCAGTGCAAGTACAGACAAGTGCGTCGCTGAATCTGTGATCAGTGCTGGGGGCCCCTCAGGGCTGCCTGTACCTGGGTGGGGTGGGACATCACCAGCCCATAGCCCATGCCAGTCGGATAGTGTTCC | 3.69 |
| GATGGACCCTATACGCGGCGAGGAAGAGTCCCAGGGTGATGAGGGTGAGGGTGTGTTCCCTCCCACAATTAATGCCATCACAGTGAGATCTGCCTAATAATAGGATCTCCAGACCCCAGCAAATTGTCTGCTGATCTCAGGCAATGTTTGTCTGTAAGAATCCTTCGCCCTGTGTAAACATTTTATTAGACCATTAAGTTGCCGTCAGCCTGCCAGTCGGATAGTGTTCC | 1.73 |
| GATGGACCCTATACGCGGCGATAATTTGGATTTAGGGTAAGGGACAGCGTTGCTCATCTACAGGACCACAAGGGGTTCTGTGCTGCAGGGGCATAAGAAGGAGCATGTGCCATGTGGGGAATGCAGGGAAGCAGGGCAGAGGGACGTAGGAGAGGAAGATTAAGAGCCAAGGGGGAGGGGCAGGCAGGCAGGTCCTTTTCCATCTTTTCATGCCAGTCGGATAGTGTTCC | 1.93 |
| GATGGACCCTATACGCGGCCAATAAGGGTGGTCTGGTGCCTTGCTCCAAAAGGCCTTATCAGTAGACCTGAGACGATGGGCTGGGTTGTCTTCATTAACCTCTGAAAGCATGCCTGGGGAAGAAGGGACCAGCCTGGGCTCCGAAGGCCTCCTCAGAACAAGACCCTGCTTGTCCAAGTGCCTCACTCCCGGGTGGCTTGATTTCCAGGATGCCAGTCGGATAGTGTTCC | 2.06 |
| GATGGACCCTATACGCGGCAGGGAGGTGTTTGGGGTTTGGACAGCTGCTCCCTCCTTTAGGGCTGACTGTCCCATCAGGAGGGGGTTGTTTCTGTTGCTCAGTGGGGAATCTGCAGGCCTCGACAGGCTCTGAGCTGGGAAACAGGAGTGGCCCTGCCTGTCCTATGACACACTGTGAGTGGAGGGGGCTGTGGCCGGCAGGGACGTAGGTGCCAGTCGGATAGTGTTCC | 2.56 |
| GATGGACCCTATACGCGGCGCTTGAACTCTGAACCTGGTGGGTTGGTTAAGCCAACAAGGGGAAGGAGTCAGTGGAAGTGGGGTTGGGAAAGGGGGCCTCCATGTGTCTGCACCTGCCTGACACTACCTGCCCCATACCACACCCTCCTGACACTGCCCACCCCTACCCCACCCTCCTGACACTGCCTACCCAATACCCCACCCTCCTGTTGCCAGTCGGATAGTGTTCC | 2.08 |
| GATGGACCCTATACGCGGCCCCCAGACCAAGGGCCAACAGGCCCCAGCCTGTACCTCTCAGCTGGGTCCCAGTGAACTTGGGCCTCCAAGGGGCCTTCCCCAGGCACCAGGGGAGGGCAGAGGGCAGGGCTGGGCCTGGACTTGCAGGATGCTCAACAGAGTTTGCCCTACCTAATTCCCACACCCCTCCTCTTGTACTCTTTCCCATCTTGCCAGTCGGATAGTGTTCC | 2.27 |
| GATGGACCCTATACGCGGCTGAAATTTTCCAGAGTTGCTCGGGGATGTCACTCGAATGGAACATTTGGGAGACTGCCAAGACCCATTTGTCAGCATGTACAGGCCTGCCCTGAGAGACCACAAATGATGGGAACTCTTGAAAGGTCTAGGGCAGTAGCCTCCAAGATAGGTCACTCCTATTCCCTGGATTCACAGCCAGCAAGAGCAGTATGCCAGTCGGATAGTGTTCC | 0.953 |
| GATGGACCCTATACGCGGCATCAAGGGAAGCAGCCCACTGTGGGCACACTCAGAAAGTATGAGTGAGGGGAGGAGGTGTAGCATGGGGAGAAGAGGCCTGGGGTAGCCCCTGGACAGAAGCCCGCTCCTTTCTGCTCTCTGAGGTGTCCACTGATTCAGCCTGTTGGCCTGGCCAGAACCTGCCCTCTTCATGCCTCGGTTTCCCTGGCTTGCCAGTCGGATAGTGTTCC | 1.93 |

2 entries from above, bar-delimited:
Sequence | binding signal (log2 relative supershift)
GATGGACCCTATACGCGGCCAATAAGGGTGGTCTGGTGCCTTGCTCCAAAAGGCCTTATCAGTAGACCTGAGACGATGGGCTGGGTTGTCTTCATTAACCTCTGAAAGCATGCCTGGGGAAGAAGGGACCAGCCTGGGCTCCGAAGGCCTCCTCAGAACAAGACCCTGCTTGTCCAAGTGCCTCACTCCCGGGTGGCTTGATTTCCAGGATGCCAGTCGGATAGTGTTCC | 2.06
GATGGACCCTATACGCGGCAGGGAGGTGTTTGGGGTTTGGACAGCTGCTCCCTCCTTTAGGGCTGACTGTCCCATCAGGAGGGGGTTGTTTCTGTTGCTCAGTGGGGAATCTGCAGGCCTCGACAGGCTCTGAGCTGGGAAACAGGAGTGGCCCTGCCTGTCCTATGACACACTGTGAGTGGAGGGGGCTGTGGCCGGCAGGGACGTAGGTGCCAGTCGGATAGTGTTCC | 2.56
